Data: article PMC8082149
Results are given in words; binding and its absence hold for the method and conditions named. In cells and extracts the contact can be indirect. Some results given as binding are weak or reduced against the parent protein; the word gives no strength.

By UniProt entry, the sequences of proteins in these tests, tags left out.
UniProt Q9Y572: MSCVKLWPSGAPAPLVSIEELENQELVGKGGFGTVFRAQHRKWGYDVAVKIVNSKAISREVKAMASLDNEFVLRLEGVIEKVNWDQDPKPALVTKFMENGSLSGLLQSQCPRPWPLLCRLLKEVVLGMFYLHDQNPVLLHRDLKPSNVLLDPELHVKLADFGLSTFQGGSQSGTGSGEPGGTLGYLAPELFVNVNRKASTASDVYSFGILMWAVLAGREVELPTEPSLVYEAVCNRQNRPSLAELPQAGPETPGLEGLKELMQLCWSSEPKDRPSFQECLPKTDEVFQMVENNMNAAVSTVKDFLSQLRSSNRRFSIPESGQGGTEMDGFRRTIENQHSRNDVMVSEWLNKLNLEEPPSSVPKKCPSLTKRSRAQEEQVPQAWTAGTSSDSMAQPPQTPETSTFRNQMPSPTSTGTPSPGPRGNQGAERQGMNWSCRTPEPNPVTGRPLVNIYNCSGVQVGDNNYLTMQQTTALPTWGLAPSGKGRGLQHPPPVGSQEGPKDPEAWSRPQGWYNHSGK
UniProt Q13546: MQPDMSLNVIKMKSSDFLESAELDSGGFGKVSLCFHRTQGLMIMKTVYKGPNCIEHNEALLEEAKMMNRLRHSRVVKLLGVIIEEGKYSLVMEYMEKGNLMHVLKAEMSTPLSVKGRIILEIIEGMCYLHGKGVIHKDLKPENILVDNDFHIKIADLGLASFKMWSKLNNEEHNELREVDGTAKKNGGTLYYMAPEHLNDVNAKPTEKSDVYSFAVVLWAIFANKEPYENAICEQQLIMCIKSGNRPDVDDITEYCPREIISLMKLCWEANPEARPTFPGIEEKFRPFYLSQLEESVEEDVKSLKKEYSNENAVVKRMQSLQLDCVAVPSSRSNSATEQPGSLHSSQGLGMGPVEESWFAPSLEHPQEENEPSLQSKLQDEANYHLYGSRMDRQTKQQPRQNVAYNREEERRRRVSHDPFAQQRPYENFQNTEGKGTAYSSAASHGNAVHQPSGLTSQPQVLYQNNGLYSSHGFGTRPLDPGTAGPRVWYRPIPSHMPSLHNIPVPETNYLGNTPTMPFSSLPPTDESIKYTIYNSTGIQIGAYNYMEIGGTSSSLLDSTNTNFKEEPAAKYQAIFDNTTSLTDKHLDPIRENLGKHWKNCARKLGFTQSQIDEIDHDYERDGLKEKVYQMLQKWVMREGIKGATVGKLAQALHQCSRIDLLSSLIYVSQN
UniProt Q14790: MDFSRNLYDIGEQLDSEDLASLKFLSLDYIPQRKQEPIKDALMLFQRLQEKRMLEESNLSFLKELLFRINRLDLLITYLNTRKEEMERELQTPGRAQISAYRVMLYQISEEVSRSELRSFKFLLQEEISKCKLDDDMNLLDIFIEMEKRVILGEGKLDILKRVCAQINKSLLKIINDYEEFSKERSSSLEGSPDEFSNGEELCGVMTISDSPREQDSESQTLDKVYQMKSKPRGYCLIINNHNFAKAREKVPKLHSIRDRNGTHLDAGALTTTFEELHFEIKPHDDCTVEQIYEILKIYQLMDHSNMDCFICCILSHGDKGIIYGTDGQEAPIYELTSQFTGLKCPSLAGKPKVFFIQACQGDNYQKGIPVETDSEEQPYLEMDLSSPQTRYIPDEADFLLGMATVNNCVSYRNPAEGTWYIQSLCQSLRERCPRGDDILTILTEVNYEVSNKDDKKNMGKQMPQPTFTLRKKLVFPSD
UniProt Q13158: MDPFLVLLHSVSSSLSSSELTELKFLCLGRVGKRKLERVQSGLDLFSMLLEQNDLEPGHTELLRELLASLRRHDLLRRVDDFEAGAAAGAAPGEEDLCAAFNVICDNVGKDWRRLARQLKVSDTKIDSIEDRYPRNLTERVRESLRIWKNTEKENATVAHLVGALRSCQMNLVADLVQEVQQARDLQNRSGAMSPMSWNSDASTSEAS
UniProt P19474: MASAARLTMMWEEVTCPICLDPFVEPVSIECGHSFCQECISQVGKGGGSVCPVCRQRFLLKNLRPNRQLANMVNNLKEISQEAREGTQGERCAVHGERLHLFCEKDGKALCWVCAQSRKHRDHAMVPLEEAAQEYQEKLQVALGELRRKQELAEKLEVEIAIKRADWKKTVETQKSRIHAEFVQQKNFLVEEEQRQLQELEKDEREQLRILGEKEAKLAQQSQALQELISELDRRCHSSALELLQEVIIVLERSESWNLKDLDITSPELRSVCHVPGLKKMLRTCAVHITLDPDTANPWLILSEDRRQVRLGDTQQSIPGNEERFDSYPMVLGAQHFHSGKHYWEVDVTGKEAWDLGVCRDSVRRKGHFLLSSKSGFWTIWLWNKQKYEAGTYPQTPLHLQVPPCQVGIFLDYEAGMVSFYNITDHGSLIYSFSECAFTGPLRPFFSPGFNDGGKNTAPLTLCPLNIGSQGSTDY

Experiments:
[1] = target: receptor-interacting serine/threonine-protein kinase 3 (human (endogenous in HT29)) (UniProt Q9Y572); experiment: co-IP; HT29 cell lysate (RIPA buffer, 4 mg) incubated with anti-RIPK3 antibody (Pierce PA1-41533) 3 h at 4°C, Protein G Dynabeads overnight at 4°C, glycine pH 2.5 elution, western blot; cells untreated (0 min) or treated with TRAIL-SK (500 ng/ml), z-VAD-fmk (25 µM) and Birinapant (1 µM) (TzB) for the indicated times (0, 2, 3 h)
[2] = target: receptor-interacting serine/threonine-protein kinase 1 (human (endogenous in HT29)) (UniProt Q13546); experiment: co-IP; 4 mg of HT29 cell lysate immunoprecipitated with an anti-RIPK1 antibody, western blot; cells untreated (0 min) or treated with TRAIL-SK (500 ng/ml), z-VAD-fmk (25 µM) and Birinapant (1 µM) (TzB) for the indicated times

| binding [1] | binding [2] | Substance |
| --- | --- | --- |
| binds | – | caspase-8 (from UniProt Q14790 1-479) (enzyme) |
| binds | – | receptor-interacting serine/threonine-protein kinase 1 (from UniProt Q13546 1-671) |
| – | binds | receptor-interacting serine/threonine-protein kinase 3 (from UniProt Q9Y572 1-518) |

Second part, the substance before the results:

| Substance | binding [1] | binding [2] |
| --- | --- | --- |
| Fas-associated with death domain protein (from UniProt Q13158 1-208) | binds | – |
| tripartite motif containing 21 (from UniProt P19474 1-475) | binds | – |
